# In patent US20260053861A1, “CELL COMPOSITIONS AND METHODS OF USING THE SAME” (THE REGENTS OF THE UNIVERSITY OF CALIFORNIA, priority 2022, published 2026):
# Test system: hPSC-SCs
smiles,measurement,value
"Br.CN1[C@@H]2CC[C@H]1C[C@@H](OC(=O)C(O)c1ccccc1)C2 (stereo partly drawn) [Homatropine hydrobromide (R,S)]",z.score.t,−0.2278
